The list does not hold the whole screen: it gathers tests that were run many times, whatever their T/C, doses with no T/C, and many T/C values between a quarter and a half above the control. Further doses and runs are listed elsewhere. T/C: endpoint of the treated group in % of that of the vehicle group. Some doses have a count of surviving animals in place of a T/C: the source files T/C as zero there, which appears to mark a toxic dose or a test without result, not a measured value. Some doses without a T/C left all or most animals alive at the check, yet need not have been tolerated: the source hardly ever lists a survival T/C far under the control, and the zero likely stands for such cases as well. Survivors were counted at the toxicity check, usually on the fifth day, unless a day is given; later deaths do not show. Schedules are NCI's codes, read here as Q, the interval in days (D) or hours (H), X, the number of doses. Where survival is the endpoint, this PubChem deposit counts one and a half times the control or more as active, and values a quarter to a half above the control carry no call in these data; other NCI protocols may use other cut-offs. Some T/C values are followed by the survivors on the day toxicity was checked, most often the fifth; where none is given, no animal had died by that day.
System: P388 leukemia ip, CD2F1 mice, survival T/C
Assay: NCI In Vivo Anticancer Drug Screen. Data for tumor model P388 Leukemia (intraperitoneal) in CD2F1 (CDF1) mice
Settings: T/C endpoint: median survival time, higher T/C = longer survival
[1] = dose: 100.0 mg/kg/injection, schedule: Q01DX009 (ip), vehicle: saline
[2] = dose: 200.0 mg/kg/injection, schedule: Q01DX009 (ip), vehicle: saline
[3] = dose: 100.0 mg/kg/injection, schedule: Q01DX009 (ip), vehicle: saline with Tween-80
[4] = dose: 200.0 mg/kg/injection, schedule: Q01DX009 (ip), vehicle: saline with Tween-80
[5] = dose: 400.0 mg/kg/injection, schedule: Q01DX009 (ip), vehicle: saline with Tween-80
[6] = dose: 400.0 mg/kg/injection, schedule: Q04DX003 (ip), vehicle: saline with Tween-80
[7] = dose: 6.25 mg/kg/injection, schedule: Q01DX009 (ip), vehicle: saline
[8] = dose: 12.5 mg/kg/injection, schedule: Q01DX009 (ip), vehicle: saline
[9] = dose: 100.0 mg/kg/injection, schedule: Q01DX009 (ip), vehicle: Klucel (hydroxypropylcellulose) (HPC)
[10] = dose: 200.0 mg/kg/injection, schedule: Q01DX001 (ip), vehicle: Klucel (hydroxypropylcellulose) (HPC)
[11] = dose: 400.0 mg/kg/injection, schedule: Q01DX001 (ip), vehicle: Klucel (hydroxypropylcellulose) (HPC)

`CC(=O)O[C@H]1C(=O)[C@]2(C)[C@@H](OC(C)=O)CC3OC[C@@]3(OC(C)=O)[C@H]2[C@H](OC(=O)c2ccccc2)[C@]2(O)C[C@H](OC(=O)[C@H](O)[C@@H](NC(=O)c3ccccc3)c3ccccc3)C(C)=C1C2(C)C` (stereo partly drawn) was tested, and the T/C (dose: 10.0 mg/kg/injection, schedule: Q01DX005 (ip), vehicle: DMSO) was 125 % of control and the T/C (dose: 20.0 mg/kg/injection, schedule: Q01DX005 (ip), vehicle: DMSO) was 139 % of control.
In the case of `C[N+]1(CCC(=O)c2ccccc2)CCOCC1`, the survivor count [1] is reported as 6 of 6.
For `NCc1cc(=O)[nH]o1`, the survivor count [2] was 6 of 6.
`C[n+]1cccc(/C=N/O)c1` was tested, and the survivor count (dose: 400.0 mg/kg/injection, schedule: Q04DX002 (ip), vehicle: saline) was 3 of 6.
`CC(C)(C)/C=C/N=NNc1ccccc1C(=O)NC(C)(C)C` was tested, and the survivor count (dose: 120.0 mg/kg/injection, schedule: Q01DX005 (ip), vehicle: Klucel + Tween-80) was 6 of 6 and the survivor count (dose: 240.0 mg/kg/injection, schedule: Q01DX005 (ip), vehicle: Klucel + Tween-80) was 6 of 6.
In the case of `CCC(N)Cc1cc(OC)c(C)cc1OC` (stereo not drawn), the survivor count [3] is reported as 4 of 6 and the survivor count [4] is reported as 0 of 6.
`ClC(Cl)Oc1ccccc1` was tested, and the survivor count [3] was 1 of 6, the survivor count [4] was 0 of 6 and the survivor count [5] was 0 of 6.
In the case of `NC(=S)N/N=C/c1cn(-c2ccc(N)cc2)cn1`, the survivor count (dose: 200.0 mg/kg/injection, schedule: Q04DX003 (ip), vehicle: Klucel (hydroxypropylcellulose) (HPC)) is reported as 0 of 6 and the survivor count (dose: 400.0 mg/kg/injection, schedule: Q04DX003 (ip), vehicle: Klucel (hydroxypropylcellulose) (HPC)) is reported as 0 of 6.
`CCCCCCCCCCCCCCCCOc1ccc(/C=N/Nc2ccccc2)cc1OC` was tested, and the survivor count [4] was 6 of 6.
With `CCCOC1=NC2=NC(N3CCCC3)=NC3=C(Cl)C=C(Cl)C(=N1)N23` the survivor count (dose: 200.0 mg/kg/injection, schedule: Q04DX002 (ip), vehicle: Klucel + Tween-80) was 0 of 6 and the survivor count (dose: 400.0 mg/kg/injection, schedule: Q04DX002 (ip), vehicle: Klucel + Tween-80) was 0 of 6.
In the case of `S=P(NCCS)(N1CC1)N1CC1`, the T/C [3] is reported as 145 % of control, the survivor count [4] is reported as 4 of 6 and the survivor count (dose: 264.0 mg/kg/injection, schedule: Q04DX003 (ip), vehicle: saline with Tween-80) is reported as 3 of 6. The survivor count [5] was 2 of 6, the T/C [6] was 136 % of control and the survivor count (dose: 600.0 mg/kg/injection, schedule: Q04DX003 (ip), vehicle: saline with Tween-80) was 4 of 6.
`COc1ccc(CC2C(=O)NC(C)C(=O)N(C)C3Cc4ccc(cc4)Oc4cc(ccc4OC)CC(C(=O)NC(C)C(=O)NC(C)C(=O)N2C)N(C)C3=O)cc1` (stereo not drawn) was tested, and the T/C (dose: 0.25 mg/kg/injection, schedule: Q01DX009 (ip), vehicle: none) was 143 % of control.
In the case of `O=[N+]([O-])c1ccc(-c2sc(-c3ccccc3)nc2O)cc1`, the survivor count [3] is reported as 6 of 6.
In the case of `Cc1ccc(C(=O)NCCN2CCN3Cc4[nH]c5ccccc5c4CC3C2)cc1` (stereo not drawn), the survivor count (dose: 400.0 mg/kg/injection, schedule: Q04DX002 (ip), vehicle: saline with Tween-80) is reported as 2 of 6.
With `C1CC2OC2CC1C1CO1` (stereo not drawn) the survivor count [5] was 3 of 6.
For `C[CH2][Sn]([CH2]C)([O]S(=O)(=O)CC12CCC(CC1=O)C2(C)C)[O]S(=O)(=O)CC12CCC(CC1=O)C2(C)C`, the T/C [7] was 130 % of control, the T/C [8] was 135 % of control and the T/C (dose: 25.0 mg/kg/injection, schedule: Q01DX009 (ip), vehicle: saline) was 133 % of control [5 of 6 alive].
`CC(CN(C)C)C(=O)/C=C/c1ccc(Cl)cc1` (stereo not drawn) was tested, and the survivor count (dose: 240.0 mg/kg/injection, schedule: Q01DX005 (ip), vehicle: saline) was 0 of 6.
With `O=C1NC(=S)NNC12CCCCC2` the survivor count (dose: 50.0 mg/kg/injection, schedule: Q01DX009 (ip), vehicle: Klucel (hydroxypropylcellulose) (HPC)) was 6 of 6 and the T/C [9] was 125 % of control.
With `CC(=O)NCCNC(Cc1ccccc1)C(=O)O` (stereo not drawn) the survivor count [10] was 1 of 6 and the survivor count [11] was 0 of 6.
`NC1[N-]C(C2CCCC[N-]2)CC2C(Cl)CCCC12.O=[N+]([O-])O.O=[N+]([O-])O.[Cu+2]` (stereo not drawn) was tested, and the survivor count (dose: 25.0 mg/kg/injection, schedule: Q04DX002 (ip), vehicle: suspension in saline) was 1 of 6, the survivor count (dose: 100.0 mg/kg/injection, schedule: Q04DX002 (ip), vehicle: suspension in saline) was 0 of 6 and the survivor count (dose: 200.0 mg/kg/injection, schedule: Q04DX002 (ip), vehicle: suspension in saline) was 0 of 6. For the same molecule, the survivor count (dose: 400.0 mg/kg/injection, schedule: Q04DX002 (ip), vehicle: suspension in saline) was 0 of 6.
`CC(Br)CN(CC(C)Br)c1ccc(-c2ccccc2)cc1` (stereo not drawn) was tested, and the survivor count [9] was 6 of 6 and the survivor count (dose: 200.0 mg/kg/injection, schedule: Q01DX009 (ip), vehicle: Klucel (hydroxypropylcellulose) (HPC)) was 1 of 6.
For `CCCC[P+](CCCC)(CCCC)CCN1C(=O)c2ccccc2C1=O`, the survivor count (dose: 200.0 mg/kg/injection, schedule: Q01DX009 (ip), vehicle: water) was 0 of 6 and the survivor count (dose: 400.0 mg/kg/injection, schedule: Q01DX009 (ip), vehicle: water) was 0 of 6.
`N#C/C(=N\NC(=O)c1cccc(C(=O)N/N=C(\C#N)c2ccccc2Cl)n1)c1ccccc1Cl` was tested, and the survivor count (dose: 12.5 mg/kg/injection, schedule: Q01DX005 (ip), vehicle: saline with Tween-80) was 6 of 6, the survivor count (dose: 25.0 mg/kg/injection, schedule: Q01DX005 (ip), vehicle: saline with Tween-80) was 6 of 6 and the survivor count (dose: 50.0 mg/kg/injection, schedule: Q01DX005 (ip), vehicle: saline with Tween-80) was 6 of 6. For the same molecule, the survivor count (dose: 100.0 mg/kg/injection, schedule: Q01DX005 (ip), vehicle: saline with Tween-80) was 6 of 6.
`CN(C)CCNCCN` was tested, and the survivor count (dose: 200.0 mg/kg/injection, schedule: Q01DX005 (ip), vehicle: saline) was 6 of 6.
`C=C(C)C(=O)OC1CC2(C)OC(=CC2=O)C(C)CC2OC(=O)C(=C)C12` (stereo not drawn) was tested, and the survivor count (dose: 100.0 mg/kg/injection, schedule: Q01DX001 (ip), vehicle: saline with Tween-80) was 2 of 6.
In the case of `COc1ccc(NC(=O)c2cc3ccc4c5ccccc5[nH]c4c3cc2O)cc1`, the survivor count (dose: 200.0 mg/kg/injection, schedule: Q01DX005 (ip), vehicle: saline with Tween-80) is reported as 6 of 6.
`[Cu+2].[O-][Cl+3]([O-])([O-])O.[O-][n+]1c2ccccc2nc2ccccc21` was tested, and the survivor count (dose: 100.0 mg/kg/injection, schedule: Q04DX003 (ip), vehicle: saline with Tween-80) was 3 of 6, the survivor count (dose: 200.0 mg/kg/injection, schedule: Q04DX003 (ip), vehicle: saline with Tween-80) was 0 of 6 and the survivor count [6] was 0 of 6.
For `CCC[P+](CCC)(CCC)CCCCCCCCCC[P+](CCC)(CCC)CCC`, the survivor count (dose: 3.12 mg/kg/injection, schedule: Q01DX009 (ip), vehicle: saline) was 0 of 6, the survivor count [7] was 0 of 6 and the survivor count [8] was 0 of 6. The survivor count (dose: 50.0 mg/kg/injection, schedule: Q01DX009 (ip), vehicle: saline) was 0 of 6, the survivor count [1] was 0 of 6 and the survivor count [2] was 0 of 6.
For `O=P1(Oc2ccccc2)NC2CCCCC2N1` (stereo not drawn), the survivor count [10] was 1 of 6 and the survivor count [11] was 0 of 6.
For `O=C(CC(CC(O)(c1ccccc1)c1ccccc1)c1ccccc1)Nc1ccccc1` (stereo not drawn), the survivor count (dose: 100.0 mg/kg/injection, schedule: Q04DX002 (ip), vehicle: Klucel (hydroxypropylcellulose) (HPC)) was 4 of 6, the survivor count (dose: 200.0 mg/kg/injection, schedule: Q04DX002 (ip), vehicle: Klucel (hydroxypropylcellulose) (HPC)) was 6 of 6 and the survivor count (dose: 400.0 mg/kg/injection, schedule: Q04DX002 (ip), vehicle: Klucel (hydroxypropylcellulose) (HPC)) was 6 of 6.
`CN(N=O)C(=O)NCCNC(=O)C1OC(n2ccc(=O)[nH]c2=O)C(O)C1O` (stereo not drawn) was tested, and the T/C [2] was 128 % of control and the T/C (dose: 400.0 mg/kg/injection, schedule: Q01DX009 (ip), vehicle: saline) was 126 % of control.
In the case of `COc1ccc2c3c([nH]c2c1N)C(C)NCC3` (stereo not drawn), the survivor count (dose: 200.0 mg/kg/injection, schedule: Q01DX005 (ip), vehicle: Klucel (hydroxypropylcellulose) (HPC)) is reported as 0 of 6.
For `COc1ccc(C2C3=C(CC(C)(C)CC3=O)Oc3cc4c(cc32)OCO4)cc1` (stereo not drawn), the survivor count (dose: 240.0 mg/kg/injection, schedule: Q01DX005 (ip), vehicle: saline with Tween-80) was 6 of 6.
